Test results taken from the supplement of paper PMC10735217.
Several values for one entry are separate records, joined by “and”; a condition that tells them apart may be missing. Equal entries are not always repeated. Structures can show the parent of a compound that is named as a salt. Some of the results follow. This data set is noisy: repeats of one test often differ as much as different tests do.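 The human kidney-derived cells carry a stably integrated construct of eight TEAD-binding elements driving luciferase, read by luminescence in a drug-repurposing library screen. A compound counts as a hit when its signal is more than five robust Z scores above the plate mean.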

Test system: HEK293A TEAD-LUC reporter
Experiment: TEAD-luciferase reporter activity (YAP activation), robust Z score vs plate; higher = stronger YAP/TEAD activation
Conditions: 24 h

| Compound | TEAD-luciferase reporter activity (compound concentration: 200 nM) | TEAD-luciferase reporter activity (compound concentration: 10 uM) | TEAD-luciferase reporter activity (compound concentration: 2 uM) |
| --- | --- | --- | --- |
| COc1c2occc2c(OC)c2c(=O)cc(C)oc12 | inactive: -1.69 | inactive: -1.01 |  |
| COc1c2occc2c(OC)c2c(=O)cc(C)oc12 [Khellin] |  |  | inactive: 1 |
| O=C1OC(=O)C2C3CCC(O3)C12 (stereo not drawn) [Norcantharidin] | inactive: 0.699 | inactive: -0.236 | inactive: 1.58 |
| N=C(N)NCCCCC(=O)Nc1cc(C(F)(F)F)cc(NC(=O)c2cc(C(=O)Nc3cc(C(F)(F)F)cc(NC(=O)CCCCNC(=N)N)c3O[C@@H]3CCNC3)ncn2)c1O[C@@H]1CCNC1 | inactive: 0.377 | inactive: -0.0516 | inactive: 1.63 and inactive: -0.857 |
| O=C1CCc2ccc(OCCCCN3CCN(c4cccc(Cl)c4Cl)CC3)cc2N1 [Aripiprazole (Abilify)] |  |  | inactive: -0.427 |
| O=C1CCc2ccc(OCCCCN3CCN(c4cccc(Cl)c4Cl)CC3)cc2N1 | inactive: -1.11 | inactive: 0.198 |  |
| N#Cc1ccc2c(c1)N(CCCN1CCC(O)CC1)c1ccccc1S2 [Periciazine] | inactive: -0.986 | inactive: -0.202 | inactive: -0.588 |
| O[C@H]1CC[C@H](Nc2ncc3nc(Nc4c(F)cc(F)cc4F)n([C@H]4CCOC4)c3n2)CC1 [Tanzisertib] | inactive: -1.62 | inactive: 0.168 | inactive: -0.997 |
| OC[C@H]1O[C@H](O[C@H]2[C@H](O)[C@@H](O)[C@H](O)O[C@@H]2CO)[C@H](O)[C@@H](O)[C@@H]1O [Maltose] | inactive: -0.357 | inactive: -0.774 | inactive: 0.144 |
| O.O.O.O.O.O.[Al+3].[Cl-].[Cl-].[Cl-] [aluminium chloride hexahydrate] | inactive: 0.58 | inactive: -0.773 | inactive: -1.26 |
| C[N+](C)(C)CC[N+]1(C)Cc2c(Cl)c(Cl)c(Cl)c(Cl)c2C1 [Chlorisondamine diiodide] | inactive: 2.08 | inactive: -1.46 | inactive: 1.14 |
| Cn1c(-c2cccc(F)c2)nc2c(N)nc(C#CC3(O)CCCC3)nc21 | inactive: 1.31 | inactive: -0.993 | inactive: -0.477 |
| NCCCC(=O)OCCN1CCN(CCCN2c3ccccc3Sc3ccc(Cl)cc32)CC1 | inactive: -0.644 | active: 5.28 | inactive: -2.34 |
| C[C@H]1c2ccccc2CCN1C(=O)c1cc2ncc(Br)cn2n1 | inactive: -2.42 | inactive: 0.724 | inactive: -1.32 |
| Cc1ccc(-c2cccc(CN3CCCC(NC(=O)c4ccc(Cl)cc4)C3)c2)cc1Cl (stereo not drawn) | inactive: -2.19 | inactive: 3.39 |  |
| CC(=O)OCC(=O)[C@@]1(O)[C@H](C)C[C@H]2[C@@H]3C[C@H](F)C4=CC(=O)C=C[C@]4(C)[C@@]3(F)[C@@H](O)C[C@@]21C [Flumethasone Acetate] | inactive: 0.393 | inactive: 4.11 | inactive: 1.75 |
| NC(=O)C1c2ccccc2C=Cc2ccccc21 | inactive: -0.327 | inactive: -0.831 | inactive: -0.93 |
| CN1Cc2ccccc2C(=O)c2cc(CC(=O)O)ccc21 | inactive: -0.807 | inactive: -1.55 | inactive: -0.479 |
| COc1cc(C(=O)OCCCN(C)CCN(C)CCCOC(=O)c2cc(OC)c(OC)c(OC)c2)cc(OC)c1OC | inactive: -0.527 | inactive: 0.599 | inactive: 1.54 |
| CN1CCN(C2=Nc3ccccc3Oc3ccc(Cl)cc32)CC1 [Loxapine succinate] |  |  | inactive: 2.11 |
| CN1CCN(C2=Nc3ccccc3Oc3ccc(Cl)cc32)CC1 [Loxapine] | inactive: -1.02 | inactive: 2.89 |  |
| CC1(C)Oc2ccc(NC(=O)/C=C/c3ccc([N+](=O)[O-])cc3)cc2NC1=O | inactive: 0.327 | inactive: -1.1 | inactive: -0.282 |
| COc1ccc2ncc(C(=O)NC3=NCCS3)c(O)c2c1 | inactive: -1.09 | active: 6.48 | inactive: 2.42 |
| CN(C)C(=O)Cn1c(-c2csc(N(CC3CCOCC3)c3ccccc3)n2)c(C2CCCCC2)c2ccc(C(=O)O)cc21 | inactive: 0.755 | inactive: 0.2 | inactive: -0.432 |
| CC(C)(C)NCC(O)c1ccc(O)c(CO)n1 (stereo not drawn) [Pirbuterol hydrochloride] | inactive: 0.687 | inactive: 0.0114 | inactive: -1.24 |
| COc1ccc(C(C#N)(CCCN2CCc3cc(OC)c(OC)cc3C2)C(C)C)cc1OC (stereo not drawn) | inactive: -0.924 | inactive: 0.859 | inactive: -1.43 |
| COc1ccc(S(=O)(=O)N(C(C)=O)c2ccccc2/C=C/c2cc[n+]([O-])cc2)cc1 | inactive: -1.42 | inactive: -0.362 | inactive: -2.45 |

| Compound | TEAD-luciferase reporter activity (compound concentration: 200 nM) | TEAD-luciferase reporter activity (compound concentration: 10 uM) | TEAD-luciferase reporter activity (compound concentration: 2 uM) |
| --- | --- | --- | --- |
| CCN(C(=O)c1c(O)c2c(Cl)cccc2n(C)c1=O)c1ccccc1 [Laquinimod] | inactive: 2.28 | inactive: 1.35 |  |
| CCN(C(=O)c1c(O)c2c(Cl)cccc2n(C)c1=O)c1ccccc1 [laquinimod] |  |  | inactive: -1.31 |
| O=C(O)[C@H]1CCCC[C@]1(O)c1ccccc1 [Cicloxilic acid] | inactive: 1.64 | inactive: 0.708 | inactive: -0.408 |
| NC(=O)N/N=C/c1ccc([N+](=O)[O-])o1 | inactive: -1.76 | inactive: -0.549 | inactive: -1.07 |
| Cc1cc(C(C)(C)C)cc(C)c1CC1=NCCN1 [xylometazoline, Novartis] | inactive: -1.55 | active: 7.16 |  |
| Cc1cc(C(C)(C)C)cc(C)c1CC1=NCCN1 [xylometazoline] |  |  | inactive: 0.158 |
| Cc1ccccc1NC(=O)NCCCC[C@H](NC(=O)[C@H](Cc1c[nH]c2ccccc12)NC(=O)OC(C)(C)C)C(=O)N[C@@H](CC(=O)O)C(=O)N(C)[C@@H](Cc1ccccc1)C(N)=O | inactive: -0.111 | inactive: -0.232 | inactive: 1.73 |
| CNc1cc(OC)c(C(=O)N[C@@H]2CCN(Cc3ccccc3)[C@@H]2C)cc1Cl [nemonapride] | inactive: -1.45 | inactive: -0.69 | inactive: -1.91 |
| CCN1CCC[C@H]1CNC(=O)c1c(OC)ccc(Br)c1OC [Remoxipride] | inactive: -1.37 | inactive: 3.05 | inactive: -1.03 |
| c1ccc2c(c1)[nH]c1cc(Cc3c[nH]cn3)ccc12 | inactive: -0.713 | inactive: 1.47 | inactive: -0.292 |
| COC(=O)Nc1c(N)nc(-c2nn(Cc3ccccc3F)c3ncc(F)cc23)nc1N [Vericiguat] | inactive: -0.7 | inactive: 0.813 | inactive: -1.69 |
| NC(=O)C1CCN(C(=O)Cn2c(=O)sc3ccc(Cl)cc32)CC1 | inactive: -1.07 | inactive: 3.23 | inactive: 2.41 |
| COc1ccc(-c2cc3c(C)nc(N)nc3n([C@H]3CC[C@H](OCCO)CC3)c2=O)cn1 | inactive: -2.31 | inactive: -1.92 | inactive: -1.76 |
| COc1cc2c(cc1OC)[C@@H]1Cc3ccc(OC)c(OC)c3CN1CC2 [(S)-(-)-Tetrahydropalmatine] | inactive: -0.575 | active: 8.76 | inactive: -0.811 |
| NCC1CC(=O)N(Cc2ccccc2)C1 (stereo not drawn) [nebracetam] | inactive: -0.299 | inactive: -0.881 | inactive: -1.73 |
| O=C(O)CCCC(=O)NCc1ccc(C(=O)O)o1 | inactive: -0.872 | inactive: -0.137 | inactive: -0.975 |
| CNNCc1ccc(C(=O)NC(C)C)cc1 [Procarbazine hydrochloride] |  |  | inactive: -1.53 |
| CNNCc1ccc(C(=O)NC(C)C)cc1 | inactive: 0.0846 | inactive: 1.04 |  |
| COC[C@H](C)Oc1cc(Oc2cnc(C(=O)N3CCC3)cn2)cc(C(=O)Nc2cc(C)on2)c1 | inactive: -0.15 | inactive: -0.777 | inactive: 1.89 |
| CC(C)NC(=N)NC(=N)Nc1ccc(Cl)c(Cl)c1 [Chlorproguanil hydrochloride] | inactive: 0.048 | inactive: -1.09 | inactive: -1.54 |
| Cc1c[n+]([O-])ccc1CC(c1ccc(C(O)(C(F)(F)F)C(F)(F)F)cc1)c1ccc(OC(F)F)c(OC(F)F)c1 (stereo not drawn) | inactive: 0.485 | inactive: 0.777 | inactive: -0.405 |
| C[C@]12C=CC(=O)C=C1CC[C@@H]1[C@@H]2[C@@H](O)C[C@@]2(C)[C@H]1CC[C@]2(O)C(=O)COC(=O)c1cccc(S(=O)(=O)[O-])c1 [Predocol] | inactive: -0.446 | inactive: -0.351 | inactive: 4.1 |
| O=C([C@@H]1CCc2nc[nH]c2C1)N1CCc2ccccc21 | inactive: -0.554 | inactive: 0.867 | inactive: -0.737 |
| CN(C)CCO[C@]1(c2ccccc2)C[C@H]2CC[C@]1(C)C2(C)C | inactive: -0.0186 | inactive: -0.348 | inactive: -0.134 |
| O=S(=O)(c1ccccc1)c1cnc2c(N3CCNCC3)cccc2c1 | inactive: -1.21 | inactive: 0.783 | inactive: -0.394 |
| CCCCOC(=O)c1ccccc1Nc1cccc(C(F)(F)F)c1 [Ufenamate] | inactive: -0.167 | inactive: -0.383 | inactive: -1.04 |
| CN(Cc1cc(Br)cc(Br)c1NC(=O)[C@H](CSSC[C@H](NC(=O)OCc1ccccc1)C(=O)Nc1c(Br)cc(Br)cc1CN(C)C1CCCCC1)NC(=O)OCc1ccccc1)C1CCCCC1 [Cistinexine] | inactive: -0.61 | inactive: -0.86 | inactive: 0.951 |

Part of the list above, with bars between the fields.
Compound | TEAD-luciferase reporter activity (compound concentration: 200 nM) | TEAD-luciferase reporter activity (compound concentration: 10 uM) | TEAD-luciferase reporter activity (compound concentration: 2 uM)
COC[C@H](C)Oc1cc(Oc2cnc(C(=O)N3CCC3)cn2)cc(C(=O)Nc2cc(C)on2)c1 | inactive: -0.15 | inactive: -0.777 | inactive: 1.89
O=C([C@@H]1CCc2nc[nH]c2C1)N1CCc2ccccc21 | inactive: -0.554 | inactive: 0.867 | inactive: -0.737
